# According to paper PMC3277888:
# Results are given in words; binding and its absence hold for the method and conditions named. Binding seen in cells or lysates may run through a third protein. Some entries that bind do so weakly or less than the wild type. For part of these data: Tags and fused reporters may be left off the sequences shown.
# B1: Stu2-VN (protein, UniProt P46675 1-888)
# chain: MSGEEEVDYTTLPLEERLTYKLWKARLEAYKELNQLFRNSVGDISRDDNIQIYWRDPTLFAQYITDSNVVAQEQAIVALNSLIDAFASSSLKNAHNITLISTWTPLLVEKGLTSSRATTKTQSMSCILSLCGLDTSITQSVELVIPFFEKKLPKLIAAAANCVYELMAAFGLTNVNVQTFLPELLKHVPQLAGHGDRNVRSQTMNLIVEIYKVTGNNSDLLEEILFKKLKPIQVKDLHKLFAKVGDEPSSSKMLFEWEKRELEKKRSQEEEARKRKSILSNDEGEYQIDKDGDTLMGMETDMPPSKQQSGVQIDTFSMLPEETILDKLPKDFQERITSSKWKDRVEALEEFWDSVLSQTKKLKSTSQNYSNLLGIYGHIIQKDANIQAVALAAQSVELICDKLKTPGFSKDYVSLVFTPLLDRTKEKKPSVIEAIRKALLTICKYYDPLASSGRNEDMLKDILEHMKHKTPQIRMECTQLFNASMKEEKDGYSTLQRYLKDEVVPIVIQIVNDTQPAIRTIGFESFAILIKIFGMNTFVKTLEHLDNLKRKKIEETVKTLPNFSIASGSTHSTIETNKQTGPMENKFLLKKSSVLPSKRVASSPLRNDNKSKVNPIGSVASASKPSMVAANNKSRVLLTSKSLATPKNVVANSTDKNEKLIEEYKYRLQKLQNDEMIWTKERQSLLEKMNNTENYKIEMIKENEMLREQLKEAQSKLNEKNIQLRSKEIDVNKLSDRVLSLENELRNMEIELDRNKKRNDTNLQSMGTISSYSIPSSTVSSNYGVKSLSSALPFKEEEDVRRKEDVNYERRSSESIGDLPHRVNSLNIRPYRKNGTGVSSVSDDLDIDFNDSFASEESYKRAAAVTSTLKARIEKMKAKSRREGTTRT
# B2: Stu2-HA (protein, UniProt P46675 1-888)
# chain: B1 chain
# B3: Bik1-HA, P11709 1-440 (protein)
# chain: MDRYQRKIGCFIQIPNLGRGQLKYVGPVDTKAGMFAGVDLLANIGKNDGSFMGKKYFQTEYPQSGLFIQLQKVASLIEKASISQTSRRTTMEPLSIPKNRSIVRLTNQFSPMDDPKSPTPMRSFRITSRHSGNQQSMDQEASDHHQQQEFGYDNREDRMEVDSILSSDRKANHNTTSDWKPDNGHMNDLNSSEVTIELREAQLTIEKLQRKQLHYKRLLDDQRMVLEEVQPTFDRYEATIQEREKEIDHLKQQLELERRQQAKQKQFFDAENEQLLAVVSQLHEEIKENEERNLSHNQPTGANEDVELLKKQLEQLRNIEDQFELHKTKWAKEREQLKMHNDSLSKEYQNLSKELFLTKPQDSSSEEVASLTKKLEEANEKIKQLEQAQAQTAVESLPIFDPPAPVDTTAGRQQWCEHCDTMGHNTAECPHHNPDNQQFF
# Key:
# Kip3-VC (S. cerevisiae) = molecular target: T1, Kip3-VC (S. cerevisiae) (UniProt P53086); experiment: split reporter; BiFC in living S. cerevisiae cells (engineered CEN3 reactivation assay); Stu2-VN and Kip3-VC; Venus signal imaged every 7 s in the YFP channel
# T1 sequence: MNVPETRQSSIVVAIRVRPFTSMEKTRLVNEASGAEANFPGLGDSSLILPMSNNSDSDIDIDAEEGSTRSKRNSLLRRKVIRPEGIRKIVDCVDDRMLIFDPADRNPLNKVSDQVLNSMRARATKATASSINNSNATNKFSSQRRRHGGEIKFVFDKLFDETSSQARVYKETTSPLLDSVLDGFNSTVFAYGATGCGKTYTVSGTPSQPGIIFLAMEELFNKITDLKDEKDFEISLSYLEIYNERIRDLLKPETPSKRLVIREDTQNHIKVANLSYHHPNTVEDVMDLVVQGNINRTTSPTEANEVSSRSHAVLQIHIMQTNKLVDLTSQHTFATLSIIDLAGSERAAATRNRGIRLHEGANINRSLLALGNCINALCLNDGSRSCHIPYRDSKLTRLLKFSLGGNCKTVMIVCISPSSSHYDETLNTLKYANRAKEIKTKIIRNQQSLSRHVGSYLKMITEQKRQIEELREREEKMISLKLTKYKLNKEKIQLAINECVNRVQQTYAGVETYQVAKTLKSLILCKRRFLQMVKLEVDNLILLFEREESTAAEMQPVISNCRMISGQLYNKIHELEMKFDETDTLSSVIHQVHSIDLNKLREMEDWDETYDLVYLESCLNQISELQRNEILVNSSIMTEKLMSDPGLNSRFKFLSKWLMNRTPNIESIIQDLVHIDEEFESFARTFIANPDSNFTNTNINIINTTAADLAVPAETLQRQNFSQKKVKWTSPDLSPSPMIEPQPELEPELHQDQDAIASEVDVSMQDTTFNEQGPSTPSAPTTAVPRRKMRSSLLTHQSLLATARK
# MBP-Kip3 (S. cerevisiae) = molecular target: T2, MBP-Kip3 (S. cerevisiae) (UniProt P53086); experiment: pull-down; MBP-Kip3 or MBP alone immobilized on amylose beads, incubated with yeast extract from STU2-HA and BIK1-HA cells; bound HA-tagged proteins detected by western blot; also done with nocodazole added to cell culture and binding reaction; only the target purified
# T2 sequence: T1 sequence
# [1] = molecular target: T3, MBP-Kip3 (S. cerevisiae), P53086; experiment: as above; settings: remark: other sources report otherwise
# T3 chain: T1 sequence
binder,measurement,setting,value
B1,binding,Kip3-VC (S. cerevisiae),binds
B2,binding,MBP-Kip3 (S. cerevisiae),binds weakly
B3,binding,[1],no binding
